Experimental data: PubChem BioAssay AID1159578 (Peter MacCallum Cancer Centre, 2015)
Test: 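siRNA pools altering how lymphatic endothelial cells close a scratch wound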 (primary screen). Cells: human lymphatic endothelial cells. Knock-down reagent: siRNA pool against human genes, 40 nM. Time to read-out: 48 h after transfection. Detection: 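Cells stained with dye and imaged after a scratch; covered wound area and nuclei counted, duplicates averaged, migration set against mock wells and turned into a robust z-score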. Scale: migration robust z-score: higher = faster migration into the scratch; nuclei per well: higher = more cells in the well. Call rule: 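Migration changed when robust z exceeds 2 or falls below -2 and mean nuclei number is at least 3300; otherwise not called changed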. Calls: active = migration changed; inactive = no migration change, or too few cells.
Shown is an unselected part of about 18,000 reagents. About 1,030 of all reagents (5.7%) count as active. 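Inactive calls also include pools with fewer than 3300 nuclei, whose migration was not assessed.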 Raw values are not corrected between plates. Not all columns of the deposit are shown.

The opening 2 records, to show the layout:
{"gene": "LILRA3", "migration robust z-score": 0.8, "nuclei per well, duplicate mean": 7070, "outcome": "inactive"}
{"gene": "ADAM12", "migration robust z-score": -0.78, "nuclei per well, duplicate mean": 5792, "outcome": "inactive"}

The listing, from the first entry:
{"gene": "LILRA3", "migration robust z-score": 0.8, "nuclei per well, duplicate mean": 7070, "outcome": "inactive"}
{"gene": "ADAM12", "migration robust z-score": -0.78, "nuclei per well, duplicate mean": 5792, "outcome": "inactive"}
{"gene": "H2BC7", "migration robust z-score": 0.16, "nuclei per well, duplicate mean": 7077, "outcome": "inactive"}
{"gene": "SPATA46", "migration robust z-score": -2.71, "nuclei per well, duplicate mean": 4385, "outcome": "active"}
{"gene": "RNF19B", "migration robust z-score": -1.06, "nuclei per well, duplicate mean": 5632, "outcome": "inactive"}
{"gene": "CBY1", "migration robust z-score": 1.3, "nuclei per well, duplicate mean": 6618, "outcome": "inactive"}
{"gene": "OBP2B", "migration robust z-score": 0.16, "nuclei per well, duplicate mean": 5446, "outcome": "inactive"}
{"gene": "OPALIN", "migration robust z-score": -0.06, "nuclei per well, duplicate mean": 5408, "outcome": "inactive"}
{"gene": "CYP26A1", "migration robust z-score": -0.57, "nuclei per well, duplicate mean": 5300, "outcome": "inactive"}
{"gene": "SERPINC1", "migration robust z-score": 0.08, "nuclei per well, duplicate mean": 5738, "outcome": "inactive"}
{"gene": "ZNF581", "migration robust z-score": 0.92, "nuclei per well, duplicate mean": 5541, "outcome": "inactive"}
{"gene": "EPRS1", "migration robust z-score": 0.36, "nuclei per well, duplicate mean": 5308, "outcome": "inactive"}
